The values that follow come from PubChem BioAssay AID256 (DTP/NCI, 2004).

In the assay the test system is CD2F1 mice, L1210 leukemia ip, survival T/C. Briefly: NCI In Vivo Anticancer Drug Screen. Data for tumor model L1210 Leukemia (intraperitoneal) in CD2F1 (CDF1) mice. The following applies: higher T/C = longer survival. The essentials:
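Vehicle-treated tumor-bearing mice served as controls (C) for compound-treated mice (T). Reported figure is T divided by C.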

Setting [1] is: T/C endpoint: mean survival time, dose: 2.5 mg/kg/injection, schedule: Q01DX007 (ip), vehicle: saline.
The mark [2] stands for this setting: T/C endpoint: mean survival time, dose: 2.5 mg/kg/injection, schedule: Q01DX009 (ip), vehicle: saline.
Setting [3] is: T/C endpoint: mean survival time, dose: 2.5 mg/kg/injection, schedule: Q03DX003 (ip), vehicle: saline.
Setting [4] is: T/C endpoint: mean survival time, dose: 5.0 mg/kg/injection, schedule: Q01DX007 (ip), vehicle: saline.
[5] abbreviates: T/C endpoint: mean survival time, dose: 5.0 mg/kg/injection, schedule: Q01DX009 (ip), vehicle: saline.
Where [6] appears, read: T/C endpoint: mean survival time, dose: 5.0 mg/kg/injection, schedule: Q03DX003 (ip), vehicle: saline.
The mark [7] stands for this setting: T/C endpoint: mean survival time, dose: 5.0 mg/kg/injection, schedule: Q04DX003 (ip), vehicle: saline.
The mark [8] stands for this setting: T/C endpoint: mean survival time, dose: 10.0 mg/kg/injection, schedule: Q03DX003 (ip), vehicle: saline.
Where [9] appears, read: T/C endpoint: mean survival time, dose: 10.0 mg/kg/injection, schedule: Q04DX003 (ip), vehicle: saline.

The list shows only some results of the screen, not a fair sample: it gathers some chemical classes. Not every dose and run of a compound is shown. T/C: endpoint of the treated group in % of that of the vehicle group. Some entries give survivors of the animals treated and no T/C: the source holds a T/C of zero for them, seemingly a mark for toxic or unscored doses. Counts of survivors are from the toxicity check (mostly the fifth day) where no day follows; animals may have died later. Schedules are NCI's codes, taken here to give the interval after Q, in days (D) or hours (H), and the number of doses after X. Where survival is the endpoint, this PubChem deposit counts one and a half times the control or more as active, and values a quarter to a half above the control carry no call in these data; other NCI protocols may use other cut-offs. Some entries show no survivor count and are marked so; the dose need not have been tolerated. Some entries hold several experiments; the values are given in rising order. Additions like (4×) say how often a value occurs here.

`ClCCN(CCCl)Cc1nc2ccccc2[nH]1`: the T/C runs as follows: under setting [1], 117 % of control [survivor count not shown]; under setting [2], 116 [survivor count not shown], 118 [survivor count not shown], 133 % of control [survivor count not shown]; under setting [3], 115 % of control [survivor count not shown]; under setting [4], 119 % of control [survivor count not shown]; under setting [5], 121 [survivor count not shown], 125 [survivor count not shown], 147 % of control [survivor count not shown]; under setting [6], 117 % of control [survivor count not shown]. The T/C is 110 % of control [survivor count not shown] under setting [7]; 153 % of control [survivor count not shown] (T/C endpoint: mean survival time, dose: 10.0 mg/kg/injection, schedule: Q01DX007 (ip), vehicle: saline); 118 [survivor count not shown], 136 [survivor count not shown], 176 % of control [survivor count not shown] (T/C endpoint: mean survival time, dose: 10.0 mg/kg/injection, schedule: Q01DX009 (ip), vehicle: saline); 128 % of control [survivor count not shown] under setting [8]; 135 % of control [survivor count not shown] under setting [9].
On to `O=C(O)CN(CCCl)CCCl`, for which the T/C was 120 % of control [survivor count not shown] under setting [1]; 124 % of control [survivor count not shown] under setting [2]; 122 % of control [survivor count not shown] under setting [3]; 128 % of control [survivor count not shown] (T/C endpoint: mean survival time, dose: 2.5 mg/kg/injection, schedule: Q04DX003 (ip), vehicle: saline); 102 % of control [survivor count not shown] under setting [4]; 112 % of control [survivor count not shown] under setting [5]. In addition, the T/C reads like this: under setting [6], 136 % of control [survivor count not shown]; under setting [7], 132 % of control [survivor count not shown]; under setting [8], 128 % of control [survivor count not shown]; under setting [9], 110 % of control [survivor count not shown]; (T/C endpoint: median survival time, dose: 0.63 mg/kg/injection, schedule: Q01DX009 (ip), vehicle: saline) 111 [survivor count not shown] and 135 % of control [survivor count not shown]; (T/C endpoint: median survival time, dose: 1.25 mg/kg/injection, schedule: Q01DX009 (ip), vehicle: saline) 128 [survivor count not shown] and 133 % of control [survivor count not shown]. The T/C was 144 [survivor count not shown] and 157 % of control [survivor count not shown] (T/C endpoint: median survival time, dose: 2.5 mg/kg/injection, schedule: Q01DX009 (ip), vehicle: saline); 164 [survivor count not shown] and 166 % of control [survivor count not shown] (T/C endpoint: median survival time, dose: 5.0 mg/kg/injection, schedule: Q01DX009 (ip), vehicle: saline).
For the compound `S=P(Cl)(Cl)N(CCCl)CCCl`, the T/C (T/C endpoint: mean survival time, dose: 6.25 mg/kg/injection, schedule: Q01DX009 (ip), vehicle: saline with Tween-80) was 101 % of control [survivor count not shown]; the T/C (T/C endpoint: mean survival time, dose: 12.5 mg/kg/injection, schedule: Q01DX009 (ip), vehicle: saline with Tween-80) was 97 % of control [survivor count not shown]; the T/C (T/C endpoint: mean survival time, dose: 25.0 mg/kg/injection, schedule: Q01DX009 (ip), vehicle: saline with Tween-80) was 95 % of control [survivor count not shown].
For the compound `CC1=CC(=O)C(N(CCCl)CCCl)=CC1=O`, the T/C runs as follows: (T/C endpoint: mean survival time, dose: 0.1 mg/kg/injection, schedule: Q01DX009 (ip), vehicle: Klucel (hydroxypropylcellulose) (HPC)) 114 % of control; (T/C endpoint: mean survival time, dose: 0.18 mg/kg/injection, schedule: Q01DX009 (ip), vehicle: Klucel (hydroxypropylcellulose) (HPC)) 111 % of control; (T/C endpoint: mean survival time, dose: 0.19 mg/kg/injection, schedule: Q01DX009 (ip), vehicle: other) 95 % of control; (T/C endpoint: mean survival time, dose: 0.2 mg/kg/injection, schedule: Q01DX009 (ip), vehicle: Klucel (hydroxypropylcellulose) (HPC)) 116 % of control; (T/C endpoint: mean survival time, dose: 0.37 mg/kg/injection, schedule: Q01DX009 (ip), vehicle: Klucel (hydroxypropylcellulose) (HPC)) 115 % of control; (T/C endpoint: mean survival time, dose: 0.39 mg/kg/injection, schedule: Q01DX009 (ip), vehicle: Klucel (hydroxypropylcellulose) (HPC)) 100 % of control [survivor count not shown]. Also, the T/C is, setting by setting: (T/C endpoint: mean survival time, dose: 0.39 mg/kg/injection, schedule: Q01DX009 (ip), vehicle: other) 97 % of control; (T/C endpoint: mean survival time, dose: 0.4 mg/kg/injection, schedule: Q01DX009 (ip), vehicle: Klucel (hydroxypropylcellulose) (HPC)) 118 % of control; (T/C endpoint: mean survival time, dose: 0.75 mg/kg/injection, schedule: Q01DX009 (ip), vehicle: Klucel (hydroxypropylcellulose) (HPC)) 110 % of control; (T/C endpoint: mean survival time, dose: 0.78 mg/kg/injection, schedule: Q01DX009 (ip), vehicle: Klucel (hydroxypropylcellulose) (HPC)) 100 % of control [survivor count not shown]; (T/C endpoint: mean survival time, dose: 0.78 mg/kg/injection, schedule: Q01DX009 (ip), vehicle: other) 89 % of control; (T/C endpoint: mean survival time, dose: 0.8 mg/kg/injection, schedule: Q01DX009 (ip), vehicle: Klucel (hydroxypropylcellulose) (HPC)) 124 % of control. Moreover, the T/C runs as follows: (T/C endpoint: mean survival time, dose: 1.5 mg/kg/injection, schedule: Q01DX009 (ip), vehicle: Klucel (hydroxypropylcellulose) (HPC)) 119 % of control; (T/C endpoint: mean survival time, dose: 1.56 mg/kg/injection, schedule: Q01DX009 (ip), vehicle: Klucel (hydroxypropylcellulose) (HPC)) 101 [survivor count not shown], 117 [survivor count not shown], 123 % of control [survivor count not shown]; (T/C endpoint: mean survival time, dose: 1.56 mg/kg/injection, schedule: Q01DX009 (ip), vehicle: other) 101 % of control; (T/C endpoint: mean survival time, dose: 3.0 mg/kg/injection, schedule: Q01DX009 (ip), vehicle: Klucel (hydroxypropylcellulose) (HPC)) 111 % of control; (T/C endpoint: mean survival time, dose: 3.12 mg/kg/injection, schedule: Q01DX009 (ip), vehicle: other) 97 % of control; (T/C endpoint: mean survival time, dose: 3.13 mg/kg/injection, schedule: Q01DX009 (ip), vehicle: Klucel (hydroxypropylcellulose) (HPC)) 110 [survivor count not shown] (2×) and 117 % of control [survivor count not shown]. Besides, the T/C is, setting by setting: (T/C endpoint: mean survival time, dose: 6.0 mg/kg/injection, schedule: Q01DX009 (ip), vehicle: Klucel (hydroxypropylcellulose) (HPC)) 93 % of control; (T/C endpoint: mean survival time, dose: 6.25 mg/kg/injection, schedule: Q01DX009 (ip), vehicle: Klucel (hydroxypropylcellulose) (HPC)) 115 [survivor count not shown], 116 [survivor count not shown], 117 % of control [survivor count not shown]; (T/C endpoint: mean survival time, dose: 6.25 mg/kg/injection, schedule: Q01DX009 (ip), vehicle: other) 106 % of control; (T/C endpoint: mean survival time, dose: 12.5 mg/kg/injection, schedule: Q01DX009 (ip), vehicle: Klucel (hydroxypropylcellulose) (HPC)) 90 % of control [survivor count not shown]; (T/C endpoint: mean survival time, dose: 25.0 mg/kg/injection, schedule: Q01DX009 (ip), vehicle: Klucel (hydroxypropylcellulose) (HPC)) 86 % of control [survivor count not shown].
For the compound `O=P1(N(CCCl)CCCl)OC2CCN1CC2` (configuration not stated), the T/C is 94 % of control (T/C endpoint: mean survival time, dose: 25.0 mg/kg/injection, schedule: Q01DX001 (ip), vehicle: DMSO); 109 % of control (T/C endpoint: mean survival time, dose: 50.0 mg/kg/injection, schedule: Q01DX001 (ip), vehicle: DMSO); 100 % of control (T/C endpoint: mean survival time, dose: 100.0 mg/kg/injection, schedule: Q01DX001 (ip), vehicle: DMSO). In addition, the survivor count is, setting by setting: (T/C endpoint: mean survival time, dose: 200.0 mg/kg/injection, schedule: Q01DX001 (ip), vehicle: DMSO) 1 of 6; (T/C endpoint: mean survival time, dose: 400.0 mg/kg/injection, schedule: Q01DX001 (ip), vehicle: DMSO) 0 of 6; (T/C endpoint: mean survival time, dose: 800.0 mg/kg/injection, schedule: Q01DX001 (ip), vehicle: DMSO) 0 of 6.
